32 targets from the supplement of paper PMC10849652 can be followed below.

Amino acid sequences for entries named in this document (tags omitted). A change or cut given only in a name is not applied to a line headed by its entry.
UniProt Q5VTE0, whole entry, looked up: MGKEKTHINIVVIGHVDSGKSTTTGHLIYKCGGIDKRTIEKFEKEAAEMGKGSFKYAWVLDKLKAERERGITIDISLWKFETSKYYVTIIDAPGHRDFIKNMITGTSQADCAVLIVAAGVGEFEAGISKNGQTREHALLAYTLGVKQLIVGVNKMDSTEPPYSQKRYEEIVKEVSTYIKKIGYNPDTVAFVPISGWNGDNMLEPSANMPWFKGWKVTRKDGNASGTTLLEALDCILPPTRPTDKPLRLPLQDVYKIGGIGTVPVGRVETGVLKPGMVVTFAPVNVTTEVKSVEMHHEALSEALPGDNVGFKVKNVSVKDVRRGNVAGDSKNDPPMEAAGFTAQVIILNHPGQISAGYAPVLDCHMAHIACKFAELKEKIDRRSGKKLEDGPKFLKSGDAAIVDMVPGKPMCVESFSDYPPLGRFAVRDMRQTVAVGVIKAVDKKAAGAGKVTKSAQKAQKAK
UniProt P23919: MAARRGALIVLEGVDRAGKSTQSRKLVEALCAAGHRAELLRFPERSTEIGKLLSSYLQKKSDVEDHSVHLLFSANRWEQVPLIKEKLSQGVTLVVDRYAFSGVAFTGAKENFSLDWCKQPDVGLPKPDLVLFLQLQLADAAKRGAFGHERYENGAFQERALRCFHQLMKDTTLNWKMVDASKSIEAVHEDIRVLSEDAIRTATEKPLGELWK
UniProt P41567, whole entry, looked up: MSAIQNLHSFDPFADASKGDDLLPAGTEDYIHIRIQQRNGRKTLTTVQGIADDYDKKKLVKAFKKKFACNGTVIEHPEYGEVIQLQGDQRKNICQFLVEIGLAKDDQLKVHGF
UniProt Q13011: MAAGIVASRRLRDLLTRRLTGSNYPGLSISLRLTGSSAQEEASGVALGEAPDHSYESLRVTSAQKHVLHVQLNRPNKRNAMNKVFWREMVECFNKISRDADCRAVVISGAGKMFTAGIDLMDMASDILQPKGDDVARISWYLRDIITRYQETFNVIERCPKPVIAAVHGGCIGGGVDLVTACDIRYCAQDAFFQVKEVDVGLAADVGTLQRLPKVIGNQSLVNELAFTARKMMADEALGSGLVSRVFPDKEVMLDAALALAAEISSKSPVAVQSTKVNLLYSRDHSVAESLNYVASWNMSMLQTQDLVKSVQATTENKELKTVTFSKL
UniProt P24534: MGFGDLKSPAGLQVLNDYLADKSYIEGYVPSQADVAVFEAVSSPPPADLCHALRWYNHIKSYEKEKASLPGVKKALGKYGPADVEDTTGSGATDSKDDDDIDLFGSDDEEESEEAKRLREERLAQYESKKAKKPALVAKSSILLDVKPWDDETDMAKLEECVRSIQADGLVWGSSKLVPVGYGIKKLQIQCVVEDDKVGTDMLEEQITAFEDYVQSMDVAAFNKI
UniProt Q96DC8: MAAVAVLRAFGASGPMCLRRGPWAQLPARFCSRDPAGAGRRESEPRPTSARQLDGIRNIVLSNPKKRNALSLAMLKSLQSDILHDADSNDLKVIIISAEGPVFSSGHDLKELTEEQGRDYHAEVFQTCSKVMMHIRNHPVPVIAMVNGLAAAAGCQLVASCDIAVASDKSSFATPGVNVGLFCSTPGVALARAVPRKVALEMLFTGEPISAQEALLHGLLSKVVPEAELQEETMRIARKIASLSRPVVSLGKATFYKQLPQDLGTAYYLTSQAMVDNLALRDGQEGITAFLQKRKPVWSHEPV
UniProt P63172, whole entry, looked up: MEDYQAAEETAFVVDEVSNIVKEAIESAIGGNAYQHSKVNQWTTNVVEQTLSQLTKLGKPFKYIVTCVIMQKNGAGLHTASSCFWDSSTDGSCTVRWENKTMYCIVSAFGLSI
UniProt Q9BQC3: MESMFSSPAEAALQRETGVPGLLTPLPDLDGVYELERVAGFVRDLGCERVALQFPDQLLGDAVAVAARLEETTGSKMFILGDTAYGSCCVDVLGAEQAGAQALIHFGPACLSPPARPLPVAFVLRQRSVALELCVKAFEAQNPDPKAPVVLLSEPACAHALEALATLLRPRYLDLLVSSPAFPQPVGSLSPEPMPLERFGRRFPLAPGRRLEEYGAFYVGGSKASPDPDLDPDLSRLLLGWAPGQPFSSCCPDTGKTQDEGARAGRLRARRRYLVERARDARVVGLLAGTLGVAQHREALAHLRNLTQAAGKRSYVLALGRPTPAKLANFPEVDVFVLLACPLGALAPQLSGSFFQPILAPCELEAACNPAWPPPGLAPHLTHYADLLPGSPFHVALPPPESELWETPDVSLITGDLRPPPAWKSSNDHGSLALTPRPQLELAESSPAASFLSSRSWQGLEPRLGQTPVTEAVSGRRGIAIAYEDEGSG
UniProt Q9BVJ7: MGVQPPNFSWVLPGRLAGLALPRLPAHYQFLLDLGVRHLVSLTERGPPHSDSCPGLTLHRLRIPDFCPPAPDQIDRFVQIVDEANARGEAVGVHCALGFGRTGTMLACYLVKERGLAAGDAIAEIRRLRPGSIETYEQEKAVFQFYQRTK
UniProt Q7Z2Z2: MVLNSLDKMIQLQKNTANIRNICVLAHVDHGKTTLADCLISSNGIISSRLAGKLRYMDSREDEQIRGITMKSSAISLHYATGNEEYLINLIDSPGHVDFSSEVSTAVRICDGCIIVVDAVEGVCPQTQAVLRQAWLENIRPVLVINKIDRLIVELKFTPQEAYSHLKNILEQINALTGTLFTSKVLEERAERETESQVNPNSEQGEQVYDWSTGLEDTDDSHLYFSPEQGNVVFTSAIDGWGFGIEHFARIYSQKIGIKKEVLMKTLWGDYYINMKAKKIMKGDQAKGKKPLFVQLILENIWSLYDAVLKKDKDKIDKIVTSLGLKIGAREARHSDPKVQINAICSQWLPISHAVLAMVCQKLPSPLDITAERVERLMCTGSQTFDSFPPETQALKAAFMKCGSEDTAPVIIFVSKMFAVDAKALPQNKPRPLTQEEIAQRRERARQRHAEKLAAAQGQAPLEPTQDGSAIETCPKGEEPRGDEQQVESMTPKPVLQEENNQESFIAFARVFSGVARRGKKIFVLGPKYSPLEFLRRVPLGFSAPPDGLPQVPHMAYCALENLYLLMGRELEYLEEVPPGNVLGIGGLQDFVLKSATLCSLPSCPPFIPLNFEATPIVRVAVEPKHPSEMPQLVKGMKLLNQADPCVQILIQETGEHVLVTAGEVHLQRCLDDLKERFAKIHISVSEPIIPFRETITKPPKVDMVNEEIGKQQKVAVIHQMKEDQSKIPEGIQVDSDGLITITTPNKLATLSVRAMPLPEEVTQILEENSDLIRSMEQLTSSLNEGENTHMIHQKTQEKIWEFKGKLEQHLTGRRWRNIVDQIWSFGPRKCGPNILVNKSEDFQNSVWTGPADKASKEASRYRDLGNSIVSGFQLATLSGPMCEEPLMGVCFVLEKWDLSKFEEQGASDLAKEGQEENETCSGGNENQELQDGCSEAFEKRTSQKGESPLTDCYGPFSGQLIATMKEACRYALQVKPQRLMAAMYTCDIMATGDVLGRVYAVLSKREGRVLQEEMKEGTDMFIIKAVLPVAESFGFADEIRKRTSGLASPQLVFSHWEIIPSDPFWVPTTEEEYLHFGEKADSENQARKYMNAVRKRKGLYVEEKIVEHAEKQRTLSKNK
UniProt O60869: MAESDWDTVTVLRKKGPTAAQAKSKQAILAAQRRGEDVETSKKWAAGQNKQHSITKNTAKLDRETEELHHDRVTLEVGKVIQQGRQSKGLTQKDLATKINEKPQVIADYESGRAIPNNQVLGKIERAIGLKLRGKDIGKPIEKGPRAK
UniProt O00716: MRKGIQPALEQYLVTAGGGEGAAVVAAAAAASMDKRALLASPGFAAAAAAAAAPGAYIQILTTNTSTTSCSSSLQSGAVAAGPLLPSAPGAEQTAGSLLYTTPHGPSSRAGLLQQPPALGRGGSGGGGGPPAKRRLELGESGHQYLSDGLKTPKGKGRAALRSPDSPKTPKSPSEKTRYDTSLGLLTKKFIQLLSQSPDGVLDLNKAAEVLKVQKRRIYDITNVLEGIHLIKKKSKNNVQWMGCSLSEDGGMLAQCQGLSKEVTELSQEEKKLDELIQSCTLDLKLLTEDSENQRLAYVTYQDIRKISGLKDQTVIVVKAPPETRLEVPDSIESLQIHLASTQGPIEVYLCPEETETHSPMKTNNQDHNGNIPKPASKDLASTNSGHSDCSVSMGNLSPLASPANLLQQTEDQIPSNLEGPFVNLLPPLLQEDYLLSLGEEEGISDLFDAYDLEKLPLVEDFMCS
EEF1AKMT2, A0A494BZY7, UniProt A0A494BZY7, whole entry, looked up: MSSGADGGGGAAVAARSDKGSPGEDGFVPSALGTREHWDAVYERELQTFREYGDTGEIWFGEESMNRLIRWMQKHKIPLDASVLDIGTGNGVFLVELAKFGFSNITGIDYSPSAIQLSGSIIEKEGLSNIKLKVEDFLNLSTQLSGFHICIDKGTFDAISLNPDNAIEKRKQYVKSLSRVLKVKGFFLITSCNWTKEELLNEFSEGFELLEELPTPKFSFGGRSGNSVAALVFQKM
UniProt Q16254: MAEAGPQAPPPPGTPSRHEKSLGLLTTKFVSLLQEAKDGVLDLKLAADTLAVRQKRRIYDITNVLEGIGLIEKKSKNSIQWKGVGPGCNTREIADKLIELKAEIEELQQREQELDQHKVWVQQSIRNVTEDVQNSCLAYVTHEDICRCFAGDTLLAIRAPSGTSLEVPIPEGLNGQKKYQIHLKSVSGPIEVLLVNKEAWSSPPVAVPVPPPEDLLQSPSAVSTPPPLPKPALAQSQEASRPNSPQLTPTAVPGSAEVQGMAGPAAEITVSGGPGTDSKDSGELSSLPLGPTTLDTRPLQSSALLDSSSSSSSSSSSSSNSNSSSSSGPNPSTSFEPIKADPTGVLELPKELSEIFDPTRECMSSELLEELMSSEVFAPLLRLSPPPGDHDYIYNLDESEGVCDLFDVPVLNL
UniProt Q9UNI6, whole entry, looked up: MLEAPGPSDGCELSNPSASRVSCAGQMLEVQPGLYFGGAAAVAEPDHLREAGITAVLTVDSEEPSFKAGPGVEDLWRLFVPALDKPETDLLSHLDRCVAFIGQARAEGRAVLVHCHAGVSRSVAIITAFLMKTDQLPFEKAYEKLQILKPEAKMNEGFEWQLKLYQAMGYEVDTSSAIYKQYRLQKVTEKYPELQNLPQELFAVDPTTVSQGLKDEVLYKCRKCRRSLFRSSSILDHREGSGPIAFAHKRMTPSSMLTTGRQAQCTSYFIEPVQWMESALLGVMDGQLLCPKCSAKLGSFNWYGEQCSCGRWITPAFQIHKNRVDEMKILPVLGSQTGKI
UniProt P33316: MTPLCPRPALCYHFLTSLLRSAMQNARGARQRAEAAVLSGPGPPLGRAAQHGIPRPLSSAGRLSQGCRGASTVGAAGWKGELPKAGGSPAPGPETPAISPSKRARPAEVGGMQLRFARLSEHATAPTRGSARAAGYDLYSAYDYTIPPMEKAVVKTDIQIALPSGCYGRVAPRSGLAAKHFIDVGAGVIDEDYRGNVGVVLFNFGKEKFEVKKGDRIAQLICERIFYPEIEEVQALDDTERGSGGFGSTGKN
UniProt Q92785, whole entry, looked up: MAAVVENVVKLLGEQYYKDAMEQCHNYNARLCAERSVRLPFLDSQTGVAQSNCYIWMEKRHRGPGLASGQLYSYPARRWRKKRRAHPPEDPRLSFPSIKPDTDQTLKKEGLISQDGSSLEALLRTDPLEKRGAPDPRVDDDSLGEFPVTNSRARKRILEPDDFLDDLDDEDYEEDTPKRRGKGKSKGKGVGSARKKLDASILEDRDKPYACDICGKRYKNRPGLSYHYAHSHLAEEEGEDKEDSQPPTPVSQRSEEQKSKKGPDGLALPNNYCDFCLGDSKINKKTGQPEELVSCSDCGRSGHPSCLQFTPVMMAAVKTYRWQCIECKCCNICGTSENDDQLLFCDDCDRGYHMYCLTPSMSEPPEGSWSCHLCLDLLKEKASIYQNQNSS
UniProt Q8N6R0: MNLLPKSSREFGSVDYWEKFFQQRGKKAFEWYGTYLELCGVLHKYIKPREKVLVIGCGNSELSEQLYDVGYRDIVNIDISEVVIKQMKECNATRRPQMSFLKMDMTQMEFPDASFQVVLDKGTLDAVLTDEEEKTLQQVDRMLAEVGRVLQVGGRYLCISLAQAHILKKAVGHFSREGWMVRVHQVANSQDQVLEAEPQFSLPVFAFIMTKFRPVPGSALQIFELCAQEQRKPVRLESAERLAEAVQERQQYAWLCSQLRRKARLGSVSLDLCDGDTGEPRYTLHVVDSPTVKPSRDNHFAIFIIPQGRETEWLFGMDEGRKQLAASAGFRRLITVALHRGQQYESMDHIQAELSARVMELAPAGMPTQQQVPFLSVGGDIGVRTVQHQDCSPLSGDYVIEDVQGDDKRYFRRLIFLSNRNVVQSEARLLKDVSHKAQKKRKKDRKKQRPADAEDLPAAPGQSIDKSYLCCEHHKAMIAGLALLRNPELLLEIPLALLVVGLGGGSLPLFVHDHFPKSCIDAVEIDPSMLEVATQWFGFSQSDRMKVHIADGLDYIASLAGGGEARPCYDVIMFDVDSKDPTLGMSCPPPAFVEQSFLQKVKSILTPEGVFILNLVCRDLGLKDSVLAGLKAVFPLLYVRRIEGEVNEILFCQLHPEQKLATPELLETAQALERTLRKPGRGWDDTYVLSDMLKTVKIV

Some of the results follow.

Compound in the first experiment: COC(=O)[C@H](CCSC)NC(=O)C1=C(C=C(C=C1)NC[C@H](CS)N)C2=CC=CC=C2
In words: log2 fold change, soluble protein after heating vs DMSO (PISA); higher = thermal stabilisation; K562 lysate, 10 uM; active = over 0.2 and 3.5 SD of the protein, either way, in both replicates (recomputed). A digest of the protocol: (§1)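 Dounce homogenisation of K562 pellets in PBS pH 7.4 with 1 mM MgCl2 produced a crude extract, used at 1 mg/mL protein. Exposure to 10 μM compound lasted 30 min, and aliquots were then heated for 3 min across 48°C-58°C, pooled and brought to 0.5% NP-40 at 4°C. The supernatant after 21,000xg for 90 min was quantified by TMTpro 16plex LC-MS/MS with channel sums equalised. Duplicate values are given as log-two fold change in thermal stability relative to solvent controls.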
For EEF1A1P5 (UniProt Q5VTE0), the log2 fold change is inactive: 0.127.
On the same count and under the same terms, then DRG2 (UniProt P55039), with inactive: 0.035; and DTYMK (UniProt P23919), with active: 0.283.
Regarding EARS2 (UniProt Q5JPH6), the log2 fold change is inactive: -0.086.
Consider EIF1 (UniProt P41567), for which the log2 fold change was inactive: -0.032.
Consider EEF2 (UniProt P13639), for which the log2 fold change was inactive: 0.024.
For EIF1AX (UniProt P47813), the log2 fold change was inactive: -0.031.
For the target ECH1 (UniProt Q13011), the log2 fold change is inactive: -0.024.
The same measure, in the same setting: the result for EEF1B2 (UniProt P24534) reads inactive: 0.027; that for DUSP9 (UniProt Q99956), inactive: 0.101.
For ECHDC3 (UniProt Q96DC8), the log2 fold change was inactive: 0.01.
As to DR1 (UniProt Q01658), the log2 fold change was inactive: -0.047.
Still for that read-out and setting: the result for DPP7 (UniProt Q9UHL4) reads inactive: -0.025; that for DYNLT1 (UniProt P63172), inactive: -0.084; that for DPH2 (UniProt Q9BQC3), inactive: 0.044.
Same read-out and setting: the result for DUSP23 (UniProt Q9BVJ7) reads inactive: -0.018; that for DYNC1H1 (UniProt Q14204), inactive: 0.122.
With EFL1 (UniProt Q7Z2Z2), the log2 fold change was inactive: 0.04.
Turning to DPY19L1, A0A1B0GW05, the log2 fold change is inactive: -0.079.
In the case of EDF1 (UniProt O60869), the log2 fold change is inactive: -0.033.
Regarding EHMT2 (UniProt A2ABF8), the log2 fold change is inactive: 0.077.
As to E2F3 (UniProt O00716), the log2 fold change was inactive: -0.119.
Take EEF1AKMT2, A0A494BZY7: the log2 fold change is inactive: 0.069.
In the case of E2F4 (UniProt Q16254), the log2 fold change was inactive: -0.089.
With DUSP12 (UniProt Q9UNI6), the log2 fold change was inactive: 0.01.
Same read-out and setting: then DUT (UniProt P33316), with inactive: -0.039; and DSG2 (UniProt Q14126), with inactive: -0.003; and EIF1AD (UniProt Q8N9N8), with inactive: -0.036.
Take DPF2 (UniProt Q92785): the log2 fold change is inactive: -0.04.
In the case of EEF1AKNMT (UniProt Q8N6R0), the log2 fold change is inactive: 0.076.
As for EDEM3 (UniProt Q9BZQ6), the log2 fold change was inactive: -0.013.
In the case of EEF1G isoform 2 (UniProt P26641), the log2 fold change is inactive: 0.002.

Compound in the next experiment: COc1cc(Nc2ncc3c(n2)-c2ccc(Cl)cc2C(c2c(F)cccc2OC)=NC3)ccc1C(=O)O [alisertib]
The description is as above. The essentials: as §1
In the case of EEF1A1P5 (UniProt Q5VTE0), the log2 fold change was inactive: 0.023.
On to DRG2 (UniProt P55039), for which the log2 fold change is inactive: 0.018.
Take DTYMK (UniProt P23919): the log2 fold change was inactive: 0.009.
EARS2 (UniProt Q5JPH6): the log2 fold change was inactive: 0.017.
Still for that read-out and setting: the result for EIF1 (UniProt P41567) reads inactive: -0.006; that for EEF2 (UniProt P13639), inactive: 0; that for EIF1AX (UniProt P47813), inactive: 0.016.
On to ECH1 (UniProt Q13011), for which the log2 fold change is inactive: -0.01.
Take EEF1B2 (UniProt P24534): the log2 fold change was inactive: 0.008.
DUSP9 (UniProt Q99956): the log2 fold change is inactive: 0.028.
With ECHDC3 (UniProt Q96DC8), the log2 fold change was inactive: 0.036.
DR1 (UniProt Q01658): the log2 fold change was inactive: -0.028.
Turning to DPP7 (UniProt Q9UHL4), the log2 fold change was inactive: -0.018.
Same read-out and setting: then DYNLT1 (UniProt P63172), with inactive: -0.067; and DPH2 (UniProt Q9BQC3), with inactive: -0.01.
Consider DUSP23 (UniProt Q9BVJ7), for which the log2 fold change was inactive: -0.003.
Turning to DYNC1H1 (UniProt Q14204), the log2 fold change was inactive: 0.009.
In the case of EFL1 (UniProt Q7Z2Z2), the log2 fold change is inactive: 0.015.
As for DPY19L1, A0A1B0GW05, the log2 fold change is inactive: 0.08.
Turning to EDF1 (UniProt O60869), the log2 fold change was inactive: 0.02.
Same read-out and setting: the result for EHMT2 (UniProt A2ABF8) reads inactive: 0.015; that for E2F3 (UniProt O00716), inactive: 0.012; that for EEF1AKMT2, A0A494BZY7, inactive: -0.02.
E2F4 (UniProt Q16254): the log2 fold change was inactive: 0.01.
With DUSP12 (UniProt Q9UNI6), the log2 fold change was inactive: 0.008.
Same read-out and setting: then DUT (UniProt P33316), with inactive: 0.034; and DSG2 (UniProt Q14126), with inactive: -0.001; and EIF1AD (UniProt Q8N9N8), with inactive: 0.04.
On to DPF2 (UniProt Q92785), for which the log2 fold change is inactive: -0.033.
Regarding EEF1AKNMT (UniProt Q8N6R0), the log2 fold change was inactive: -0.02.
On the same count and under the same terms, the result for EDEM3 (UniProt Q9BZQ6) reads inactive: 0.001; that for EEF1G isoform 2 (UniProt P26641), inactive: 0.009.

Compound in a further experiment: COc1cc2nc(-c3cc(F)ccc3O)nc(N[C@@H]3CNC[C@H]3C(C)(C)O)c2cc1OC
The description is as above. The essentials: as §1
For the target EEF1A1P5 (UniProt Q5VTE0), the log2 fold change is inactive: 0.009.
For DRG2 (UniProt P55039), the log2 fold change was inactive: -0.004.
DTYMK (UniProt P23919): the log2 fold change was inactive: -0.007.
For EARS2 (UniProt Q5JPH6), the log2 fold change was inactive: 0.016.
With EIF1 (UniProt P41567), the log2 fold change was inactive: 0.005.
EEF2 (UniProt P13639): the log2 fold change is inactive: -0.013.
On the same count and under the same terms, the result for EIF1AX (UniProt P47813) reads inactive: -0.026.
Turning to ECH1 (UniProt Q13011), the log2 fold change is inactive: 0.047.
On to EEF1B2 (UniProt P24534), for which the log2 fold change is inactive: 0.003.
Same read-out and setting: the result for DUSP9 (UniProt Q99956) reads inactive: -0.101; that for ECHDC3 (UniProt Q96DC8), inactive: -0.028; that for DR1 (UniProt Q01658), inactive: 0.035.
As to DPP7 (UniProt Q9UHL4), the log2 fold change was inactive: 0.026.
Regarding DYNLT1 (UniProt P63172), the log2 fold change was inactive: 0.011.
As to DPH2 (UniProt Q9BQC3), the log2 fold change is inactive: 0.011.
DUSP23 (UniProt Q9BVJ7): the log2 fold change is inactive: -0.053.
Same read-out and setting: the result for DYNC1H1 (UniProt Q14204) reads inactive: 0.005; that for EFL1 (UniProt Q7Z2Z2), inactive: -0.007; that for DPY19L1, A0A1B0GW05, inactive: -0.096.
Still for that read-out and setting: the result for EDF1 (UniProt O60869) reads inactive: 0.03; that for EHMT2 (UniProt A2ABF8), inactive: 0.016; that for E2F3 (UniProt O00716), inactive: 0.
On the same count and under the same terms, the result for EEF1AKMT2, A0A494BZY7 reads inactive: 0.013; that for E2F4 (UniProt Q16254), inactive: -0.038; that for DUSP12 (UniProt Q9UNI6), inactive: -0.01.
In the case of DUT (UniProt P33316), the log2 fold change is inactive: -0.014.
Still for that read-out and setting: the result for DSG2 (UniProt Q14126) reads inactive: 0; that for EIF1AD (UniProt Q8N9N8), inactive: -0.003.
Still for that read-out and setting: then DPF2 (UniProt Q92785), with inactive: 0.021; and EEF1AKNMT (UniProt Q8N6R0), with inactive: 0.027; and EDEM3 (UniProt Q9BZQ6), with inactive: 0.022.
For the target EEF1G isoform 2 (UniProt P26641), the log2 fold change is inactive: -0.014.
